The results in this text go back to paper PMC11486656.

For the experiment, the target named is T1, His6-I3-mEos3.2 (UniProt O60927).
T1 sequence: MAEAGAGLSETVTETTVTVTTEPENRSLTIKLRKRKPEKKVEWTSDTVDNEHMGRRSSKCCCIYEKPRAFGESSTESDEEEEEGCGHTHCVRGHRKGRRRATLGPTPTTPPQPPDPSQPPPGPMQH
Put plainly: co-purification (NiNTA affinity, ion exchange, SEC); SDS22, PP1 and His6-I3-mEos3.2 expressed together in High Five insect cells; His6 tag on I3-mEos3.2.

No constants are given. Whether binding was seen depends on the method and setting. Some binding calls cover weakened binding; strength is not graded here. Sequences can lack the tags named with a protein.

B1: SDS22 (protein, UniProt Q15435 1-360)
chain: MAAERGAGQQQSQEMMEVDRRVESEESGDEEGKKHSSGIVADLSEQSLKDGEERGEEDPEEEHELPVDMETINLDRDAEDVDLNHYRIGKIEGFEVLKKVKTLCLRQNLIKCIENLEELQSLRELDLYDNQIKKIENLEALTELEILDISFNLLRNIEGVDKLTRLKKLFLVNNKISKIENLSNLHQLQMLELGSNRIRAIENIDTLTNLESLFLGKNKITKLQNLDALTNLTVLSMQSNRLTKIEGLQNLVNLRELYLSHNGIEVIEGLENNNKLTMLDIASNRIKKIENISHLTELQEFWMNDNLLESWSDLDELKGARSLETVYLERNPLQKDPQYRRKVMLALPSVRQIDATFVRF
For B1, the binding entry is recorded as “binds”.
